Data taken from PubChem BioAssay AID540256 (National Center for Advancing Translational Sciences (NCATS), 2011).
In all, about 300,000 compounds went through this assay and about 3,700 (1.2%) were called active. Inconclusive means that the source gave no clear call. Such entries were picked first, then a sample of the others. Calls come from the whole dose curve; tested in HEK293 cells. Potencies beside an inconclusive call are fits to weak or partial responses and may not hold up.

assay: qHTS for Inhibitors of binding or entry into cells for Lassa Virus; conditions: Lassa virus pseudotype entry inhibition, cell reporter; activity change, negative = inhibition: at 37.9 µM (top of the series) unless noted; note: nearly all actives have a fitted effect of over 50% in size
% is set by controls: 0 for no effect and ±100 for the full control effect; potency is the fitted concentration of half-maximal effect.

Structure (SMILES)	Potency	activity change, negative = inhibition
O=C(NC1CCCCC1)c1cc2cc(Br)ccc2o1	inconclusive: 6.31 µM [inhibitor, single point]	
COc1ccc(CNC(=O)CCC2N=C3c4ccccc4N=C(SCc4ccc(F)cc4)N3C2=O)cc1 (configuration not stated)		inactive: -5.17% [at 46.1 µM]
CC(=O)Nc1ccc(-c2cc(-c3ccc(NC(C)=O)cc3)nc(-c3ccccc3)n2)cc1		inactive: 5.28%
O=C(C1CCCCC1)N(Cc1cccnc1)c1nc2c(F)cc(F)cc2s1		inactive: -1.81% [at 46.1 µM]
O=C(COC(=O)/C=C/c1cccc(F)c1)NC1CC1		inactive: 12.6%
Brc1ccc(CSc2ccc3nnc(-c4cccnc4)n3n2)cc1	inconclusive: 12.6 µM [inhibitor, partial curve, poor fit]	
COc1cc(OC)cc(C(=O)Nc2ccc(S(=O)(=O)Nc3ccccn3)cc2)c1	inconclusive: 3.16 µM [inhibitor, single point]	
NC(=O)c1cccn(Cc2ccc(C(F)(F)F)cc2)c1=O	inconclusive: 35.5 µM [inhibitor, partial curve, poor fit]	
Cc1ccc2nc(-c3ccccc3)cc(C(=O)N(C)CC(=O)Nc3ccccc3Br)c2c1	inconclusive: 12.6 µM [inhibitor, partial curve, poor fit]	
Cc1ccc2nc(NC(=O)c3ccc(S(=O)(=O)N4CCCc5ccccc54)cc3)sc2c1	inconclusive: 3.98 µM [inhibitor, full curve, poor fit]	
CC(=O)NC(Cc1c[nH]c2ccccc12)C(=O)N/N=C/c1ccccc1 (configuration not stated)	inconclusive: 3.55 µM [activator, full curve]	
COc1ccc(/C=C/C(=O)Nc2cc(S(=O)(=O)N3CCOCC3)ccc2C)cc1OC		inactive: -4.46% [at 46.1 µM]
COc1ccc(-c2cc(C(=O)Nc3ccccc3N3CCOCC3)c3ccccc3n2)cc1OC	inconclusive: 6.31 µM [inhibitor, partial curve]	
COc1ccc(/C=C/C(=O)Nc2cc(C)on2)cc1	inconclusive: 2.51 µM [activator, single point]	
Cc1ccc(C(=O)N2CCN(c3ccc(NC(=S)NC(=O)c4cccs4)cc3)CC2)cc1	inconclusive: 1 µM [inhibitor, full curve]	
Cc1c(Cl)cccc1NC(=O)c1ccco1		inconclusive: 3.1% [activator]
Cc1nc(CS(=O)(=O)c2ccccc2)cc(Sc2ccc(Cl)cc2Cl)n1		inactive: -0.109%
Cc1ccc(S(=O)(=O)c2cc3cc(Br)ccc3oc2=O)cc1		inactive: -25.6%
O=C(N/N=C/c1sc(N2CCOCC2)nc1-c1ccccc1)c1ccccc1O	active: 1.26 µM	
O=C1CN=C(c2ccccc2)c2oc3ccc(Br)cc3c2N1		inactive: 12.5%
CCCCCOC(=O)C1=C(C)Nc2ncnn2C1c1cccs1 (configuration not stated)	active: 20.6 µM	
COc1ccc(CC(=O)Nc2ccc3nc(Nc4cccc(Cl)c4)cc(C)c3c2)cc1	inconclusive: 35.5 µM [inhibitor, single point]	

Structure (SMILES)	Potency	activity change, negative = inhibition
CC1=C([N+](=O)[O-])C(c2ccccc2Cl)NC(=O)N1 (configuration not stated)	inconclusive: 0.794 µM [inhibitor, single point]	
O=C(NC(=S)Nc1cccc(Cl)c1N1CCCCC1)c1ccc2c(c1)OCCO2	inconclusive: 7.94 µM [inhibitor, partial curve, poor fit]	
FC(F)(F)c1cccc(-c2ccn3ncnc3n2)c1		inactive: -37.6%
O=C(COC(=O)/C=C/c1ccc2c(c1)OCO2)Nc1ccc(S(=O)(=O)N2CCCC2)cc1		inactive: -29.4%
CCNc1ccc(S(=O)(=O)N(C)C)cc1NCC(=O)Nc1ccc(F)c(Cl)c1	inconclusive: 0.517 µM [inhibitor, partial curve, poor fit]	
C[C@H]1CN(C2CCCCC2)C(=O)[C@H]1CC(=O)Nc1ccc(Br)cc1	inconclusive: 11.2 µM [inhibitor, full curve, poor fit]	
Cc1ccccc1OCCCCn1c(C2CC(=O)N(c3ccccc3Cl)C2)nc2ccccc21 (configuration not stated)	inconclusive: 28.2 µM [inhibitor, single point]	
O=C(O)CCC(=O)N1N=C(c2ccc(Br)cc2)CC1c1cccc(Br)c1 (configuration not stated)		inactive: -4.59% [at 46.1 µM]
Cc1cccc(Nc2ccc([N+](=O)[O-])cc2C(=O)O)c1		inactive: 7.87%
O=C1/C(=C\c2ccc(Cl)c(Cl)c2)CN(C(=O)CCN2CCOCC2)C/C1=C/c1ccc(Cl)c(Cl)c1	inconclusive: 1.41 µM [inhibitor, full curve, poor fit]	
COc1cc(NS(=O)(=O)c2ccc3[nH]c4c(c3c2)CCCC4)cc(OC)c1OC	inconclusive: 3.98 µM [inhibitor, partial curve, poor fit]	
CCCn1c(CCC(=O)Nc2cccc(C)c2C)nc2cccnc21		inactive: 1.42% [at 46.1 µM]
CC(C)C[C@H]1COc2c(Cl)cccc2S(=O)(=O)N1C	inconclusive: 0.315 µM [inhibitor, full curve, poor fit]	
Nc1c(C(=O)NCCc2ccccc2)nnn1CC(=O)Nc1ccc(Cl)cc1	inconclusive: 35.5 µM [activator, single point]	
Cc1ccc2oc(-c3ccc(NC(=O)c4ccncc4)cc3O)nc2c1		inactive: 13.7%
CCOC(=O)c1nn(-c2ccc(F)cc2)c(-c2ccccc2)c1C(=O)c1ccccc1	inconclusive: 17.8 µM [inhibitor, partial curve, poor fit]	
Cc1ccc(-n2c(O)c(C=Nc3ccccc3N)c(=O)[nH]c2=O)cc1C	inconclusive: 15.8 µM [inhibitor, single point]	
Cc1cccc(C(=O)NCC(=O)NC2CCC(C)CC2)c1 (configuration not stated)	inconclusive: 35.5 µM [activator, single point]	
CCCN(CC(=O)Nc1ccccc1C)C(=O)c1ccc(Cl)c(S(=O)(=O)N2CCCC2)c1	inconclusive: 10 µM [inhibitor, partial curve, poor fit]	
CCOC(=O)c1c(C)[nH]c(CCC(=O)NCc2cccc(OC)c2)c1C		inactive: -21.3% [at 46.1 µM]
CCc1cc2c3c(c1)C1(C(=O)N3C(C)(C)CC2C)C(C#N)=C(N)N2C(=C1C#N)Nc1ccccc12 (configuration not stated)	active: 12.6 µM	
N=C1C(c2nc(-c3ccc(Cl)cc3)cs2)=C(O)CN1CCCN1CCOCC1	inconclusive: 35.5 µM [inhibitor, single point]	
Cc1ccc(S(=O)(=O)N(C)C)cc1NC(=O)C(C)OC(=O)c1cc[n+]([O-])cc1 (configuration not stated)	inconclusive: 0.447 µM [inhibitor, single point]	

Structure (SMILES)	Potency	activity change, negative = inhibition
CCOc1cccc(/C=N/NC(=O)c2ccc3c(c2)OCCO3)c1O	inconclusive: 7.08 µM [inhibitor, partial curve, poor fit]	
O=C(Oc1c(Cl)cc(Cl)c2cccnc12)c1cccc([N+](=O)[O-])c1	inconclusive: 12.6 µM [inhibitor, single point]	
Cc1ccc(Cn2c(CO)cnc2SCc2cccc(F)c2)cc1	inconclusive: 17.8 µM [activator, partial curve, poor fit]	
CCn1c2ccccc2c2cc(NC(=O)COC(=O)c3ccc(NC(=O)CC#N)cc3)ccc21	inconclusive: 10 µM [activator, partial curve, poor fit]	
COc1cccc(-c2cc(C(F)(F)F)n3ncc(C(=O)O)c3n2)c1		inactive: 3.86%
COc1ccc(CCNC(=O)c2cc3c(-c4ccc(OC)c(OC)c4)nn(C)c3s2)cc1OC	inconclusive: 20 µM [inhibitor, partial curve, poor fit]	
CSc1ccccc1NC(=O)CN(C)C(=O)c1c(C)nn(Cc2ccccc2)c1C		inactive: -15.1%
O=C(N/N=C/c1cccc(OC(=O)c2ccc([N+](=O)[O-])cc2)c1)c1cccnc1	inconclusive: 5.62 µM [activator, single point]	
CC(=O)c1ccc(Oc2ccc(C(=O)c3ccc(C)c(C)c3)cc2[N+](=O)[O-])cc1	active: 1.46 µM	
Cc1ccc(NC(=O)CSC2=C(C#N)C(c3ccc4c(c3)OCO4)C3=C(CCCC3=O)N2)c(C)c1 (configuration not stated)	inconclusive: 23.1 µM [inhibitor, partial curve, poor fit]	
O=C(COC(=O)c1ccc(Br)cc1)NCCC1=CCCCC1		inactive: -0.338%
O=c1[nH]cnc2c1oc1ccccc12		inactive: 18.2%
NS(=O)(=O)c1ccc(CCNC(=O)C2CCN(S(=O)(=O)c3cnc[nH]3)CC2)cc1	inconclusive: 32.6 µM [inhibitor, partial curve, poor fit]	
CCCCCc1ccc(OCCCC[n+]2cccc(C)c2)c(CCCCC)c1	inconclusive: 25.1 µM [inhibitor, single point]	
COc1ccc(NC(=O)C2CCCN2c2ccc(OC)c(OC)c2)cc1OC (configuration not stated)		inactive: -18.2%
Cc1ccc(O)c(NC(=O)c2cc(-c3ccc(F)cc3)on2)c1	inactive	
Cc1ccc(NC(=O)C2CCN(S(=O)(=O)c3ccc4c(c3)NC(=O)C(C)S4)CC2)c(C)c1 (configuration not stated)	inconclusive: 25.1 µM [inhibitor, single point]	
Cc1cc2c(cc3c(SCc4cccc(F)c4)nnc(C)n32)o1	inconclusive: 35.5 µM [inhibitor, single point]	
Cc1ccc(C2=CC(c3ccc(Cl)cc3)n3nc(-c4ccc(C)cc4)nc3N2)cc1 (configuration not stated)	inconclusive: 2.24 µM [inhibitor, single point]	
CC(C)c1ccc(C2c3c(oc4ccc(Cl)cc4c3=O)C(=O)N2CCCN2CCOCC2)cc1 (configuration not stated)	inconclusive: 3.98 µM [inhibitor, partial curve, poor fit]	
O=C(CCc1ccccc1)N1CCc2c([nH]c3ccccc23)C1c1ccc(Cl)cc1 (configuration not stated)	inconclusive: 4.47 µM [inhibitor, full curve, poor fit]	

Filtered by structure, the entries above containing a thiophene ring, fused or not.
Structure (SMILES)	Potency	activity change, negative = inhibition
Cc1ccc(C(=O)N2CCN(c3ccc(NC(=S)NC(=O)c4cccs4)cc3)CC2)cc1	inconclusive: 1 µM [inhibitor, full curve]	
CCCCCOC(=O)C1=C(C)Nc2ncnn2C1c1cccs1 (configuration not stated)	active: 20.6 µM	
COc1ccc(CCNC(=O)c2cc3c(-c4ccc(OC)c(OC)c4)nn(C)c3s2)cc1OC	inconclusive: 20 µM [inhibitor, partial curve, poor fit]	

Two entries picked at random from the list so far, as already listed:
Structure (SMILES)	Potency	activity change, negative = inhibition
CCCn1c(CCC(=O)Nc2cccc(C)c2C)nc2cccnc21		inactive: 1.42% [at 46.1 µM]
CCNc1ccc(S(=O)(=O)N(C)C)cc1NCC(=O)Nc1ccc(F)c(Cl)c1	inconclusive: 0.517 µM [inhibitor, partial curve, poor fit]	
